According to patent publication US9290551B2, “Compounds for treating papilloma virus infection” (NanoVir, LLC, priority 2012, dated 2016):
At least one compound was matched to its structure with a doubt left.

Key:
[1] = system: HPV 16; assay: HPV 16 episome DNA levels in W12E cells by Q-PCR (Taqman); assay type: cell-based, Human papilloma virus; conditions: effective (pseudo) IC50; 50% reduction in HPV DNA relative to vehicle (0.1% DMSO)
Experimental: Cells maintaining HPV 16 DNA were cultured for 72 hours in the presence of cidofovir, interferon γ or polyamide. Viral DNA was then quantified using real-time PCR and compared to vehicle (DMSO)-treated control cultures.
Compounds were initially tested for effects on HPV 16 episome DNA levels in W12E cells by Q-PCR (Taqman™) over 3 concentration ranges (0.1, 1 and 10 μM). W12E cells are a cervical keratinocyte cell line originally identified by M. Stanley (Cambridge University), and later optimized and provided by P. Lambert (U. of Wisconsin). […] In all cases (initial tests and follow-up IC50 tests), dose testing was performed in triplicate. […] Furthermore, all experiments were conducted in triplicate, multiple times. The data were then combined, pseudo or effective IC50 values calculated, and variance determined to reveal the fit of the data to the model and its reliability.
Keratinocytes that maintain HPV 16 episomes were treated with increasing concentrations of polyamides.

[2] = system: HPV18; assay: HPV18 DNA levels in keratinocytes by real-time PCR; assay type: cell-based, Human papilloma virus; conditions: effective (pseudo) IC50
Experimental: Human keratinocytes, including those maintaining HPV episomes, are cultured on mitomycin C-treated J2 3T3 cells in media containing three parts Dulbecco's modified Eagle medium (DMEM) and one part F12 media, our modification of published methods (Rheinwald and Green, 1975). Media (E Media) is supplemented with 0.4 μg/mL hydrocortisone, 10 ng/mL cholera toxin, 5 μg/mL insulin, 24 μg/mL adenine, 5 μg/mL transferrin, […] (T3), 10 ng/mL epidermal growth factor (EGF), 1% penicillin-streptomycin, and 5% fetal bovine serum (FBS). All cells are passaged at 70% confluency at a split ratio of 1:5.
Polyamides for HPV 18 are dissolved at 10 mM in 100% DMSO and diluted with H2O to 1 mM. […] The HPV DNA levels are then quantified according to previously published procedures (Garner-Hamrick and Fisher, Virology, 301, 334-41, 2002). […] Trypsinized cells are counted on a hemocytometer and pelleted by centrifugation. […]
Viral DNA levels are next quantified according to variations on our previously published methods (Garner-Hamrick and Fisher, Virology, 301, 334-41, 2002). Quantitative PCR is performed using Real-Time PCR technology on an ABI PRISM 7700 Sequence Detector. […]
All primers and probes are synthesized and HPLC purified by Applied Biosystems (Foster City, Calif.). […] Each Hirt-isolated DNA sample is analyzed in triplicate reactions for episomal HPV. […]

Compound: CN(CCCN)CCCNC(=O)CCNC(=O)c1cc(NC(=O)c2cc(NC(=O)c3cc(NC(=O)CCNC(=O)c4cc(NC(=O)c5cc(NC(=O)c6cc(NC(=O)CCNC(=O)c7cc(NC(=O)c8cc(NC(=O)CCCNC(=O)c9cc(NC(=O)c%10cc(NC(=O)CCNC(=O)c%11nc(NC(=O)c%12cc(NC(=O)c%13cc(NC(=O)CCNC(=O)c%14cc(NC(=O)c%15cc(NC(=O)c%16nccn%16C)cn%15C)cn%14C)cn%13C)cn%12C)cn%11C)cn%10C)cn9C)cn8C)cn7C)cn6C)cn5C)cn4C)cn3C)cn2C)cn1C [Polyamide 1042, ImPPβPPIβPPγPPβPPPβPPPβTa]
- IC50 [1]: 100 to 1000 nM
- IC50 [2]: 100 to 1000 nM
